No constants are given. Whether binding was seen depends on the method and setting. In cells and extracts the contact can be indirect. Some binding calls cover weakened binding; strength is not graded here.

The chains behind the UniProt entries cited, without tags or fusion partners.
UniProt Q7Z6Z7: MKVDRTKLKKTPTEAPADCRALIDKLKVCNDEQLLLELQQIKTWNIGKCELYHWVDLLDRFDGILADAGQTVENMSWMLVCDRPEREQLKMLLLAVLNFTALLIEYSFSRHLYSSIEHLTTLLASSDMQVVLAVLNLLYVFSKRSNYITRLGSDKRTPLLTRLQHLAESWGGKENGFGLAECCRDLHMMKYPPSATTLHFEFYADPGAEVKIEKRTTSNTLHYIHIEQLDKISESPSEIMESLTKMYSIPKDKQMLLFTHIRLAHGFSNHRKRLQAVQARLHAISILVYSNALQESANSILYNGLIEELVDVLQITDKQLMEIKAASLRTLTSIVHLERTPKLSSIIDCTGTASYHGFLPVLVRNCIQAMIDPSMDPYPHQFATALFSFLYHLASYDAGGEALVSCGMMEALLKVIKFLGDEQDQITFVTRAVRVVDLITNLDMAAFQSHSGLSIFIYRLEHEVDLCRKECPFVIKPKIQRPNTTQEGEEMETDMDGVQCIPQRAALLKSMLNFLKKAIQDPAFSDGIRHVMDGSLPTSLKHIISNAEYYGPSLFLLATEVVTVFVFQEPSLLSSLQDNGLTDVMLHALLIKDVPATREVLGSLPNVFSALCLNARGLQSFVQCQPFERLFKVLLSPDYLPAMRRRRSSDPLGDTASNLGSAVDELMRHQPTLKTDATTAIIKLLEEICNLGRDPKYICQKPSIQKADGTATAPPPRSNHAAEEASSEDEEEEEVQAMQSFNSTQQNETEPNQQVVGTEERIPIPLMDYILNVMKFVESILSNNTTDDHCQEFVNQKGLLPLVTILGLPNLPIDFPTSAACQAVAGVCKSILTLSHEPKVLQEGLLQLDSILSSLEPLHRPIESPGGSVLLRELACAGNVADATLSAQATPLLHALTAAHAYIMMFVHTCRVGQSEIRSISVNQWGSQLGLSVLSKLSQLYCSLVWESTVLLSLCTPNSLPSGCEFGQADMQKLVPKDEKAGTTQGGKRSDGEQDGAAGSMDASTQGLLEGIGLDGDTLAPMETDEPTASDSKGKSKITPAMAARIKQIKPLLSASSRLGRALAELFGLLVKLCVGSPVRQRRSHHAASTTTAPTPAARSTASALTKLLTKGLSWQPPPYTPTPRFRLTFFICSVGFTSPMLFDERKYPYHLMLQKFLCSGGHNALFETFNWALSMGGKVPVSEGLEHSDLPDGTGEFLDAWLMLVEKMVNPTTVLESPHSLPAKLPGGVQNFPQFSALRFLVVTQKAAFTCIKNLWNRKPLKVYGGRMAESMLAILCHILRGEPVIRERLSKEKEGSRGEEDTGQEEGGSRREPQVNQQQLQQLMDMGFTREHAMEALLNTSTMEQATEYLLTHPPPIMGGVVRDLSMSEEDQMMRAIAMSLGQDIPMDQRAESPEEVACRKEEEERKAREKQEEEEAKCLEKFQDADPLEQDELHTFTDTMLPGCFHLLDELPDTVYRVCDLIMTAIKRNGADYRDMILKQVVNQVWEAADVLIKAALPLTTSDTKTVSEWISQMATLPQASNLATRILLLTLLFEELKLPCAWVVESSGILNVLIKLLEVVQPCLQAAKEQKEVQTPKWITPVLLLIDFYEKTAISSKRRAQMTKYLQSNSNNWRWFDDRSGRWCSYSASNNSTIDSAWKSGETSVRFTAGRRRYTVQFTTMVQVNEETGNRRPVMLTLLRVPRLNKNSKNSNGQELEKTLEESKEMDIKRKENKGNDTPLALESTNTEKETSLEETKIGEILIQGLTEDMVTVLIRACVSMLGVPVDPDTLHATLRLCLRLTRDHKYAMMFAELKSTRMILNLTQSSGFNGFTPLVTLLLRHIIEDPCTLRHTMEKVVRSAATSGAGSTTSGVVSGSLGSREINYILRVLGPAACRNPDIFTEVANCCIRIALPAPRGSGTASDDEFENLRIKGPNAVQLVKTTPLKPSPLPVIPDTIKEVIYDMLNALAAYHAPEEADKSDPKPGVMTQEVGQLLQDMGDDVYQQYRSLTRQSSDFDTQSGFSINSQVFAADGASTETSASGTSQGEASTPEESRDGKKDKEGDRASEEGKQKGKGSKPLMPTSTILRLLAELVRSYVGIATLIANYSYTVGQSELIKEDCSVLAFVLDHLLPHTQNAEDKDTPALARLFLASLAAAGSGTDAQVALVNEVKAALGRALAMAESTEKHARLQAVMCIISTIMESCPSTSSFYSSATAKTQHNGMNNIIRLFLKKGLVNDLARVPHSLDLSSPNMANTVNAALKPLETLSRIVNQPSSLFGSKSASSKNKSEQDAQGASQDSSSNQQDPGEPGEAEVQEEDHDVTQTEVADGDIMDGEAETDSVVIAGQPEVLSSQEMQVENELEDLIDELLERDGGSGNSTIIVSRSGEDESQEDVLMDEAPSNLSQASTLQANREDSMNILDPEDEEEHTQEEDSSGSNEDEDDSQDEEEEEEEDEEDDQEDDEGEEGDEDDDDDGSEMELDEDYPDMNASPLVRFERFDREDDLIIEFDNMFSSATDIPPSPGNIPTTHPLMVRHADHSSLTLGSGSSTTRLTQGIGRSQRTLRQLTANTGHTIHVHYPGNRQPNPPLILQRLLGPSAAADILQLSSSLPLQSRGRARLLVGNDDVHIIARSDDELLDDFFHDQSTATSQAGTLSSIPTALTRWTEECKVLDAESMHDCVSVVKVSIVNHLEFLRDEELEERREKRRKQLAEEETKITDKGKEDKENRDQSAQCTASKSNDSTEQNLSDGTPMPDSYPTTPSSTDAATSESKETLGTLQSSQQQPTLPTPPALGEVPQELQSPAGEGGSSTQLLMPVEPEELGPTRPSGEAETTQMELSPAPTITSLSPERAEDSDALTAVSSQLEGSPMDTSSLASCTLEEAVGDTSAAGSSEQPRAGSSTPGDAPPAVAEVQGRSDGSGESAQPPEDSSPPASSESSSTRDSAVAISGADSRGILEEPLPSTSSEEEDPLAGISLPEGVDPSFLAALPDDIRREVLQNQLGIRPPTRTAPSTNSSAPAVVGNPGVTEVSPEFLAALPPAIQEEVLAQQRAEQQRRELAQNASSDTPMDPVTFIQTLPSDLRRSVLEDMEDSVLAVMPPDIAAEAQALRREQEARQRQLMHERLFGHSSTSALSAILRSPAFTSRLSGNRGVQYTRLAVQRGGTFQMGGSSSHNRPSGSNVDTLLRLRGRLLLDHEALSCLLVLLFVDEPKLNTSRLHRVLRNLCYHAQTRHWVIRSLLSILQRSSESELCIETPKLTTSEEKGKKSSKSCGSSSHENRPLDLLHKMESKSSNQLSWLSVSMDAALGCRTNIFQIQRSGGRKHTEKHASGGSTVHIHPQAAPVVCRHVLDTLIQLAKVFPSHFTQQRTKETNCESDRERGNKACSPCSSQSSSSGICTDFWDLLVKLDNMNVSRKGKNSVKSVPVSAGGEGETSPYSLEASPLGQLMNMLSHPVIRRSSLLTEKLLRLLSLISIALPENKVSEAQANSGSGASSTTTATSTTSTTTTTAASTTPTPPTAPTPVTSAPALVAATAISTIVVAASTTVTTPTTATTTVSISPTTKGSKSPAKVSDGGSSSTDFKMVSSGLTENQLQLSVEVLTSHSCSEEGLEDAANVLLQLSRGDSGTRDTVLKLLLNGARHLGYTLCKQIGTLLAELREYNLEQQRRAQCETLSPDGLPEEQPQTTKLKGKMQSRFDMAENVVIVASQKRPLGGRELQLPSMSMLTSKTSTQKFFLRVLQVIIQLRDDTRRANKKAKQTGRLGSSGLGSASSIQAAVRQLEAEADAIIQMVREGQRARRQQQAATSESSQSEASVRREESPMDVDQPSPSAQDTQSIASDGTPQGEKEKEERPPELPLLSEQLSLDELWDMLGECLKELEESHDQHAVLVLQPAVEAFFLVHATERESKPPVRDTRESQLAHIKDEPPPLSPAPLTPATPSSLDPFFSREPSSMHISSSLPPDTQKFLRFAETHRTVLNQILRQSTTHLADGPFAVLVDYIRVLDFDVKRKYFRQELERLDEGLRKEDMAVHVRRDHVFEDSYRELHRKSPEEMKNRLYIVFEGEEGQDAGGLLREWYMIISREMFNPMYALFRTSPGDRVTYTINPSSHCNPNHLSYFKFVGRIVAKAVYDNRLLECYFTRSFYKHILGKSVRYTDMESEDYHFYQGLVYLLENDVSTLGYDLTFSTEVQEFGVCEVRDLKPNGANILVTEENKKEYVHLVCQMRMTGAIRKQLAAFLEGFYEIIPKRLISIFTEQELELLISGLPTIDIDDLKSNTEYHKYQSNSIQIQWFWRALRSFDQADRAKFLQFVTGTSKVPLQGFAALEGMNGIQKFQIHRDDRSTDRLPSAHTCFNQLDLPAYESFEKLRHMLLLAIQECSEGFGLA
UniProt Q13620: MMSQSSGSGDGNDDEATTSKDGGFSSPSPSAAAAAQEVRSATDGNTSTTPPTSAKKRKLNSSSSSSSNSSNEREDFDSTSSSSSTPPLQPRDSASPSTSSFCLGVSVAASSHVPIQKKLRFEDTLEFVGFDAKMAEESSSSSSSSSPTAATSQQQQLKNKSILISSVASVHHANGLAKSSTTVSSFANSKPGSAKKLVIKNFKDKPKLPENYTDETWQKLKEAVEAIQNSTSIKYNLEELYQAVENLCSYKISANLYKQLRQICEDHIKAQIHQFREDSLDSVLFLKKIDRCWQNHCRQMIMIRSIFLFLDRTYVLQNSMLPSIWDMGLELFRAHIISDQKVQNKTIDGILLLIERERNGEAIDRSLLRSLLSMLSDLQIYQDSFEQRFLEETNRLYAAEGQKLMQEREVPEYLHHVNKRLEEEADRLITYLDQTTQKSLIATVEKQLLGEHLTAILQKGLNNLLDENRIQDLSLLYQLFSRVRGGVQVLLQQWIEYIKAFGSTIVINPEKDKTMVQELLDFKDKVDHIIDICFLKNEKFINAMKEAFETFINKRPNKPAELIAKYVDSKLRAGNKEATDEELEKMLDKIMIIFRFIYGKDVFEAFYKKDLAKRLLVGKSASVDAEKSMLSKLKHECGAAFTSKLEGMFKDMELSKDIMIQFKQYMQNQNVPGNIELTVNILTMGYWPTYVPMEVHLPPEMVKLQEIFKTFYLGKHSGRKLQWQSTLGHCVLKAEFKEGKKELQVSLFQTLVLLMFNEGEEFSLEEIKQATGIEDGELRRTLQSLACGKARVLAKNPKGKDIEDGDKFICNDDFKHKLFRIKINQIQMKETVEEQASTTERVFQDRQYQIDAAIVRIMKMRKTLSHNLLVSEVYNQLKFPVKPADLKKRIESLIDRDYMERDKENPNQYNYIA
UniProt Q16531: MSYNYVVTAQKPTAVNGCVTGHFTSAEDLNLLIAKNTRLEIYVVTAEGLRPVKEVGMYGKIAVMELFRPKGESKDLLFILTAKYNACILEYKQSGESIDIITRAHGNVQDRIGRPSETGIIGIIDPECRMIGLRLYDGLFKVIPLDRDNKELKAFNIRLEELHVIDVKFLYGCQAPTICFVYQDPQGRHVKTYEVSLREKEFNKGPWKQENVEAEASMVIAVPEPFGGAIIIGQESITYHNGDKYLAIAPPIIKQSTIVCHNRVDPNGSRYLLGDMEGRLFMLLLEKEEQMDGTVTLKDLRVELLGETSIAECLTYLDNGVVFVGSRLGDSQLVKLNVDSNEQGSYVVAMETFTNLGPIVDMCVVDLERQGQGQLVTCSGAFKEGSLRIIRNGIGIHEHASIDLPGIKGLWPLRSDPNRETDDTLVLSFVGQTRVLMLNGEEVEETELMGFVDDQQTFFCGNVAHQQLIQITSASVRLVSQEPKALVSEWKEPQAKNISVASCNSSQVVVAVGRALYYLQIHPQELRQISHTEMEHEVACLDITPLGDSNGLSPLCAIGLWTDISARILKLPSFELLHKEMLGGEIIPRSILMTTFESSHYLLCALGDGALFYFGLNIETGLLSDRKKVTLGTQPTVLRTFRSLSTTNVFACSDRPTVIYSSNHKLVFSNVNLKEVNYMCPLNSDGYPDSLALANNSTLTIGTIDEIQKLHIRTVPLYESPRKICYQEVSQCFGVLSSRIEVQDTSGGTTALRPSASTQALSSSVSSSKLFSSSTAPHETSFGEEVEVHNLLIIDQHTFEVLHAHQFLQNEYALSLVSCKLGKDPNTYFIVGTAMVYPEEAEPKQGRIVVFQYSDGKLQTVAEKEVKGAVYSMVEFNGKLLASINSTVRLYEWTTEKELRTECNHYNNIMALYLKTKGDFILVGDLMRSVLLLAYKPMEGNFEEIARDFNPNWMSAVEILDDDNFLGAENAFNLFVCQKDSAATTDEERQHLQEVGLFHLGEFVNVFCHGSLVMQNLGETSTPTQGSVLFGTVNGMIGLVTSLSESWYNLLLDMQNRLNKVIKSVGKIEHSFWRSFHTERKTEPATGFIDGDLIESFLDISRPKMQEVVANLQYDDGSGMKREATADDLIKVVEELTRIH

Results on four substances are retold here after article PMC4482080.

For assay [1], the target named is HUWE1 (endogenous) (human (endogenous in HeLa)) (UniProt Q7Z6Z7). Kind of assay: co-IP; endogenous proteins from HeLa cell lysates; IP with CUL4B antibodies or normal IgG, or with a polyclonal antibody against HUWE1; cells treated with or without MLN4924; immunoblot.
Assay [2] concerns the target Flag-HA-CUL4B (transiently expressed in 293T cells) (human) (UniProt Q13620). Kind of assay: co-IP; 293T cells cotransfected; the Flag-tagged protein pulled down with anti-FLAG M2 agarose; immunoblot. (In general: A western blot detects proteins with antibodies after separation by electrophoresis.)
For assay [3], the target named is CUL4B (endogenous) (human (endogenous in HeLa)) (UniProt Q13620). Put plainly: co-IP; endogenous proteins from HeLa cell lysates; IP with CUL4B antibodies or normal IgG, or with a polyclonal antibody against HUWE1; cells treated with or without MLN4924; immunoblot.
The target in assay [4] is Flag-HA-tagged CUL4B (stably expressed in HeLa S3 cells) (human) (UniProt Q13620). Kind of assay: co-IP; Flag-HA-tagged CUL4B immunoprecipitated from HeLa S3 cells that stably express it; endogenous HUWE1 detected.
The target of assay [5] is Flag-HA-HUWE1 (UniProt Q7Z6Z7). Kind of assay: co-IP; 293T cells cotransfected; the Flag-tagged protein pulled down with anti-FLAG M2 agarose; immunoblot.

As for “CUL4B (endogenous) (from UniProt Q13620 1-913)”, the binding entry in assay [1] is on record as “binds weakly”.

Take EYFP-HUWE1 (from UniProt Q7Z6Z7 1-4374): in assay [2], the binding result is “binds weakly”.

With “HUWE1 (endogenous) (from UniProt Q7Z6Z7 1-4374)”, the binding result is reported as “binds weakly” in assay [3] and “binds” in assay [4].

Regarding V5-DDB1 (from UniProt Q16531 1-1140), the binding result in assay [5] is “binds”.
